± gives the standard deviation of the averaged measurements. This is a selection; strong and weak results do not stand in their true shares. Most entries show no effect beyond the scatter of the controls.

Protein sequences, listed by entry. Tags and fused reporters are not part of them. Lines headed by an entry give the natural chain unless they say otherwise; changes in a name come on top.
UniProt Q8IYT2: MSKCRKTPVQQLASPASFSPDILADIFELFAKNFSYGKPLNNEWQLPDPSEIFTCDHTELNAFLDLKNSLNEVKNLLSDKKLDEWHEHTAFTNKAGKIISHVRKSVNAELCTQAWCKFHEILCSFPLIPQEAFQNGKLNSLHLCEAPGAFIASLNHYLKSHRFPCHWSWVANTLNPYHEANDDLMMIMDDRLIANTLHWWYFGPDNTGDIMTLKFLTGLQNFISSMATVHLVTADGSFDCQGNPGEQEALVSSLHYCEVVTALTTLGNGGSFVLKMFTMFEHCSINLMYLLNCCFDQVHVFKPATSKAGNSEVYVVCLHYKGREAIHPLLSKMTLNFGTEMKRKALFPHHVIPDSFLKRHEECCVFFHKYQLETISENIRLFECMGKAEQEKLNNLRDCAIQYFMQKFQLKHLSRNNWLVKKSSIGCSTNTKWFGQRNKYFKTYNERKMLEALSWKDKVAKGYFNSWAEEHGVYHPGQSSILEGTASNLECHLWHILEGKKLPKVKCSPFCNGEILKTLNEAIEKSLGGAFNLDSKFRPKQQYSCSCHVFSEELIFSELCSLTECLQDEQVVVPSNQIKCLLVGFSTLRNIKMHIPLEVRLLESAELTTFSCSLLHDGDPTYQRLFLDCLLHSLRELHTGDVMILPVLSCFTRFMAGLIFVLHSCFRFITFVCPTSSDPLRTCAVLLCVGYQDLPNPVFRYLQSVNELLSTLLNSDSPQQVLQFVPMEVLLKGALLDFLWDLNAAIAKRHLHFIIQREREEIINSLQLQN
UniProt Q13418: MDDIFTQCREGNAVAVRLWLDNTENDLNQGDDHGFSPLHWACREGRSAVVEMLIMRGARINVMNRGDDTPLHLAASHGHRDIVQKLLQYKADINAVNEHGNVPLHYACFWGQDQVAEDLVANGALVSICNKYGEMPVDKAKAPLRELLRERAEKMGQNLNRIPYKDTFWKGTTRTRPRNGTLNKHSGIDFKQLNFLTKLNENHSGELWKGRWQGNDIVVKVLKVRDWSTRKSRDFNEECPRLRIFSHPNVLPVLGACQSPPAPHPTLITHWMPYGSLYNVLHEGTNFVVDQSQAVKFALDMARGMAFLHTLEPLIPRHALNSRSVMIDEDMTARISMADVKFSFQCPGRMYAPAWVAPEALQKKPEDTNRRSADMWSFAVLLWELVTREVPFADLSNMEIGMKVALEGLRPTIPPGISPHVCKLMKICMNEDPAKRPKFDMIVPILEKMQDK
UniProt Q8IZQ5, whole entry, looked up: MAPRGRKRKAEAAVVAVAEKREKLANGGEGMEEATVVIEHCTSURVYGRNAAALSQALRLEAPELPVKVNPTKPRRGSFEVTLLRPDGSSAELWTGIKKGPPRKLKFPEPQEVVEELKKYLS
UniProt Q9ULH1: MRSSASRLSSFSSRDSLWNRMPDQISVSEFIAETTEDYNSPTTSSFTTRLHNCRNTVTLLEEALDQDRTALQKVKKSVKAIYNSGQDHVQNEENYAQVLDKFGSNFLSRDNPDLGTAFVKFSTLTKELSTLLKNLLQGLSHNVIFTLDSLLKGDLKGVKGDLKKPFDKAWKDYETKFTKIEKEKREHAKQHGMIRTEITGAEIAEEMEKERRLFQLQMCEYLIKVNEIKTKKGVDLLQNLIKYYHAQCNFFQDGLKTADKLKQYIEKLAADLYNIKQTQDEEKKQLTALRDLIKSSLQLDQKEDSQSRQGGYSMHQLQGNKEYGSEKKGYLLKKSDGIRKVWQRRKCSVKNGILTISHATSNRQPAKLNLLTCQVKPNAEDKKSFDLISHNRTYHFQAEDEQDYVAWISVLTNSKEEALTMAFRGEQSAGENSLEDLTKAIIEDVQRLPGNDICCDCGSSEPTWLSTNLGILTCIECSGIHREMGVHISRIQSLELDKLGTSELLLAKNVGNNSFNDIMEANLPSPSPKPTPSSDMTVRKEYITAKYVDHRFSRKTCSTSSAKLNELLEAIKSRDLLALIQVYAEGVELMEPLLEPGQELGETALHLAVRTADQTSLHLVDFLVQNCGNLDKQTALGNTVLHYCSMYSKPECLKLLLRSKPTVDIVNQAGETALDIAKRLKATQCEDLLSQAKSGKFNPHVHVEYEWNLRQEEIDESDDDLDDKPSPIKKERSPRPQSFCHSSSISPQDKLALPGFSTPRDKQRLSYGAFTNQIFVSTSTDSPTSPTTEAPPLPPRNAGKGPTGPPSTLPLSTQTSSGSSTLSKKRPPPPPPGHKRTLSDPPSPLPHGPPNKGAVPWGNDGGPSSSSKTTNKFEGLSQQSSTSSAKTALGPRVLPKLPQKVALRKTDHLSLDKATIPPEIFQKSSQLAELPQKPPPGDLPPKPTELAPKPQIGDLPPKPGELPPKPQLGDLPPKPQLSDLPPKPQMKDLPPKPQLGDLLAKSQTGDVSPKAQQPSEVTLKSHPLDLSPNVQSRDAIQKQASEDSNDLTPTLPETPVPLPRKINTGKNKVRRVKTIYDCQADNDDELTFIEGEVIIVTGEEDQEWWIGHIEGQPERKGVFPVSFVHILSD
UniProt Q9Y666: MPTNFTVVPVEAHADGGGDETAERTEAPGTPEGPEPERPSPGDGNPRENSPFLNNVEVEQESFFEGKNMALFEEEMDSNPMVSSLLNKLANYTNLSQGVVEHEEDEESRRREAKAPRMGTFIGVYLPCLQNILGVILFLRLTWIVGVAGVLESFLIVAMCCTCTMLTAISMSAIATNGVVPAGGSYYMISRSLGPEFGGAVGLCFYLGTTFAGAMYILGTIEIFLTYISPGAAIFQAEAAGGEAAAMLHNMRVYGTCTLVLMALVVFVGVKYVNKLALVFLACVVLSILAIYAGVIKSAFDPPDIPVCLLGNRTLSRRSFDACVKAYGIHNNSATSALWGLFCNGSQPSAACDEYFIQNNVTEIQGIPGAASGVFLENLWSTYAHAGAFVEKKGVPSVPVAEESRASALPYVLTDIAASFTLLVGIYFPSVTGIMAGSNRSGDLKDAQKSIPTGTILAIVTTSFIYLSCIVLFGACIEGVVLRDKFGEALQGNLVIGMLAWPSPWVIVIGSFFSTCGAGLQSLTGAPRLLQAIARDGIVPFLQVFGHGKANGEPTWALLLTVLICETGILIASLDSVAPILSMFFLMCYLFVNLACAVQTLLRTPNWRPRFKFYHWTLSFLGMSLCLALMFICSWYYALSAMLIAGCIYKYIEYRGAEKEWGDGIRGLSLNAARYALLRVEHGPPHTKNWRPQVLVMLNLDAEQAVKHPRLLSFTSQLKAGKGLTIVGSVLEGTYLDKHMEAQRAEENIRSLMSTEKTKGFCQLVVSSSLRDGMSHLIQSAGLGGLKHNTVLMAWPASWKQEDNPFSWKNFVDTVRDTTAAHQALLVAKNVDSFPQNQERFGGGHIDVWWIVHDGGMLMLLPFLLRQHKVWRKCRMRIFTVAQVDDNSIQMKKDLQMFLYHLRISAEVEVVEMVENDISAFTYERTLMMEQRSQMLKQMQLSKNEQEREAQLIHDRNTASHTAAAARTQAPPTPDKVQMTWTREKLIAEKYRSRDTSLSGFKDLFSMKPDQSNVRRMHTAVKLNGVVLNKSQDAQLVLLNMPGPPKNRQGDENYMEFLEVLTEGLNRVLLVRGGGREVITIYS
UniProt Q13617, whole entry: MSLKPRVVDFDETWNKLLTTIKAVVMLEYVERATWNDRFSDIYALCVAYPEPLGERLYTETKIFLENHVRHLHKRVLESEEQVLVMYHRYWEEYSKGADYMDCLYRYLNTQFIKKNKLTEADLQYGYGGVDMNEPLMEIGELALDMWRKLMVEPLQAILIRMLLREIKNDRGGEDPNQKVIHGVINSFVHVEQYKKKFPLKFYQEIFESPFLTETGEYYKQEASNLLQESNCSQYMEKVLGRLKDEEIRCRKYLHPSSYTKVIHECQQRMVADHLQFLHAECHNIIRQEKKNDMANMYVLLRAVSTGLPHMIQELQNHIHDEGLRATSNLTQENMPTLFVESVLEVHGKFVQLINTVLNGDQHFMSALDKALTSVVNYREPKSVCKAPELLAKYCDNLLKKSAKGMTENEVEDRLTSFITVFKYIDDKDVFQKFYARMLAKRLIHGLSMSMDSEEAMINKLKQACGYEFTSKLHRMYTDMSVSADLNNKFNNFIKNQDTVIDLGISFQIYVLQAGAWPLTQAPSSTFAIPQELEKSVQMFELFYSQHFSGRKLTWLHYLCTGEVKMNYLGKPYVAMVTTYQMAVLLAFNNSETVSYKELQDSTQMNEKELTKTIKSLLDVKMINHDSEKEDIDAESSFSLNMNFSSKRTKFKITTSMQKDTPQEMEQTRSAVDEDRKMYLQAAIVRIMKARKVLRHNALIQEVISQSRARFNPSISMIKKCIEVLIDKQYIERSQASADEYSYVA
UniProt O75608: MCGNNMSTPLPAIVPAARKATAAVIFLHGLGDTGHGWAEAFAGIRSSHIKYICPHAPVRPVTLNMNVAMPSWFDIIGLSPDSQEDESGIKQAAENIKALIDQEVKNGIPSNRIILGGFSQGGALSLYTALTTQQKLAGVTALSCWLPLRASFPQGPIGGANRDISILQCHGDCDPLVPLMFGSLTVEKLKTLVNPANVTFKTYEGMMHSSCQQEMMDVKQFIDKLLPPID
UniProt Q04206, whole entry: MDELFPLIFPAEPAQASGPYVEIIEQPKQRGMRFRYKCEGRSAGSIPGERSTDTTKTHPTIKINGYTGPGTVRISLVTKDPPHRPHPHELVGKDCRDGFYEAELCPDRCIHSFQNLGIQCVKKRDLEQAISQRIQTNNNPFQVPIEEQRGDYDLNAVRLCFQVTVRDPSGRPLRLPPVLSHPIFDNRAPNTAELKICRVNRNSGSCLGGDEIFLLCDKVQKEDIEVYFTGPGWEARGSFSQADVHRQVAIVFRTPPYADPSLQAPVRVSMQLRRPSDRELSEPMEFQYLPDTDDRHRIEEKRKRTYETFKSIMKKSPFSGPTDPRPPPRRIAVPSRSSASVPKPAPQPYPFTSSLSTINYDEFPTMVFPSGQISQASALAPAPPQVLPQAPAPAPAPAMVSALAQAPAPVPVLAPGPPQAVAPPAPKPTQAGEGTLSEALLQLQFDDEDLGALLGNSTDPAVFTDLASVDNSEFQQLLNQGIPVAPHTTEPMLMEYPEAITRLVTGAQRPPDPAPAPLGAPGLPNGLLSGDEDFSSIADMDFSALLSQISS
UniProt Q9Y3A5: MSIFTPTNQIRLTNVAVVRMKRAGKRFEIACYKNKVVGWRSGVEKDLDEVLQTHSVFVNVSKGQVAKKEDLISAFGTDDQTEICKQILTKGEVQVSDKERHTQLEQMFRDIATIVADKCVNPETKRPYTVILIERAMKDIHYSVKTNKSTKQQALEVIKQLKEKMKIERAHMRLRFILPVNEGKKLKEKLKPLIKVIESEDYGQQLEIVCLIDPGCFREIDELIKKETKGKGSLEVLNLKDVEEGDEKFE
UniProt P09326: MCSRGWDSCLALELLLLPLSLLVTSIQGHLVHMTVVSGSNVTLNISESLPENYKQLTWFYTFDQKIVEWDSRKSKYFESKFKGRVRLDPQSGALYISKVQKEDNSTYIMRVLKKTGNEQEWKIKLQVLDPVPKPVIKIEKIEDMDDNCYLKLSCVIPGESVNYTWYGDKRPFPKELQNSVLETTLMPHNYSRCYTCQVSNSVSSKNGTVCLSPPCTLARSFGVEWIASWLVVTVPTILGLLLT
UniProt Q8WUA7: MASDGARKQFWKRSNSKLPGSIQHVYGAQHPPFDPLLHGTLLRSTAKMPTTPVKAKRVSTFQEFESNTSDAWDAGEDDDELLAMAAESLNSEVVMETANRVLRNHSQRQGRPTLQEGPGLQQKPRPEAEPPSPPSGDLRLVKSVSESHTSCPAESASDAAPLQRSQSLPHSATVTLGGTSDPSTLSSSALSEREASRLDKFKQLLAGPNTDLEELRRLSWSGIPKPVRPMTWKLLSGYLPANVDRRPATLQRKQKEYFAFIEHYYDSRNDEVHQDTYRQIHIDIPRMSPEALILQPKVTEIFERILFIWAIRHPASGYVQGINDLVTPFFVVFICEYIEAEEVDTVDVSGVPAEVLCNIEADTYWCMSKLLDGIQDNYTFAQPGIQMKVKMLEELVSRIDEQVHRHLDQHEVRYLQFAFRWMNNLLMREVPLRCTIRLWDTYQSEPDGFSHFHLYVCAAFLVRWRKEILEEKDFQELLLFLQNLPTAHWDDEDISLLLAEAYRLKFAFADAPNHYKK
UniProt Q8IWS0: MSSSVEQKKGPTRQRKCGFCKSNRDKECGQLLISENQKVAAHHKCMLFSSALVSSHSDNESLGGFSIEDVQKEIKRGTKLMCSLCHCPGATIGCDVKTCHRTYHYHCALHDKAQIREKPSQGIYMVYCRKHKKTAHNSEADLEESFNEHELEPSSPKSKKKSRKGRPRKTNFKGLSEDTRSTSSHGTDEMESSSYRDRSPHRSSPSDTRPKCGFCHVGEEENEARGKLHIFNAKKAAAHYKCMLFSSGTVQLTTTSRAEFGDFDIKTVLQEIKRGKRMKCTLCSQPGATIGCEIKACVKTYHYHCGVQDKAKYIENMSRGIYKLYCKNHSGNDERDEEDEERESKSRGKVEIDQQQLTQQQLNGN

Compound in the first assay: Nc1ncnc2c1ncn2[C@@H]1O[C@H](COP(=O)(O)OP(=O)(O)NP(=O)(O)O)[C@@H](O)[C@H]1O [adenylyl imidodiphosphate]
Briefly: NP40-soluble protein abundance relative to vehicle (solubility fold change) (ratio); higher = more soluble protein in presence of AMP-PNP. The settings on record: concentration: 0.1mM. The method in brief: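 Jurkat crude lysate prepared with a Dounce homogeniser was treated at eight concentrations spanning 0.1 to 10 mM, 10 min at room temperature then 3 min at 37 °C. Solubilisation with 0.8% NP40 and benzonase and ultracentrifugation preceded TMT labelling of the supernatant for LC-MS/MS. Fold change against the detergent-processed vehicle was determined per replicate from vsn-normalised intensities, across three independent experiments.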
For the target “A0A0A0MTD1|E7EPX0 and related entries (UniProt Q9NUL3)”, the NP40-soluble protein abundance came to 1.031 ± 0.0043.
Regarding “A0A087X0M1|H0YAA8 and related entries (UniProt Q9H204)”, the NP40-soluble protein abundance turned out to be 1.02 ± 0.02.
Regarding A0A0U1RRB3|Q8IYT2 (UniProt Q8IYT2), the NP40-soluble protein abundance turned out to be 1.03 ± 0.044.
Same read-out and setting: the figure for “A0A0U1RRC9|P57075 and related entries (UniProt P57075)” is 0.997 ± 0.018.
For “A0A087WY00|F8W6H6 and related entries (UniProt Q9Y4I1)”, the NP40-soluble protein abundance was 1.52 ± 0.25.
Consider A0A0A0MTH3|Q13418 (UniProt Q13418), for which the NP40-soluble protein abundance was 1.007 ± 0.0092.
Still for that read-out and setting: the figure for “A0A0A0MSE9|B7WPA5 and related entries (UniProt Q96CS7)” is 1 ± 0.011; for “A0A0A0MQX8|Q9NR56 and related entries (UniProt Q9NR56)” it is 0.966 ± 0.021; for A0A087WYP2|Q8IZQ5 (UniProt Q8IZQ5) it is 1.01 ± 0.028.
Still for that read-out and setting: the figure for “A0A0C4DGG9|F5GWX5 and related entries (UniProt Q14839)” is 0.985 ± 0.018.
In the case of “A0A0A0MRE5|Q9ULH1 and related entries (UniProt Q9ULH1)”, the NP40-soluble protein abundance worked out at 0.968 ± 0.018.
Same read-out and setting: then “A0A087WYL7|G3V4A5 and related entries (UniProt O75586)”, with 0.999 ± 0.025.
As for A0A0G2JNW7|Q9Y666 (UniProt Q9Y666), the NP40-soluble protein abundance was 0.99 ± 0.012.
As for “A0A0A0MTN0|Q13617 and related entries (UniProt Q13617)”, the NP40-soluble protein abundance came to 0.971 ± 0.034.
Turning to “A0A087X1K9|O75608 and related entries (UniProt O75608)”, the NP40-soluble protein abundance was determined as 0.9658 ± 0.0051.
With A0A0C4DFY7|Q6UWW8 (UniProt Q6UWW8), the NP40-soluble protein abundance was 1.02 ± 0.041.
On the same count and under the same terms, then “A0A087X0W8|Q04206 and related entries (UniProt Q04206)”, with 0.993 ± 0.024; and “A0A0A0MTJ9|A0A0R4J2G3|Q6PIU2 and related entries (UniProt Q6PIU2)”, with 0.9716 ± 0.0078.
Turning to A0A0A0MT83|P26440 (UniProt P26440), the NP40-soluble protein abundance was found to be 1.02 ± 0.032.
Take “A0A0A0MSA9|A0A0C4DG49|P15151 and related entries (UniProt P15151)”: the NP40-soluble protein abundance is 0.9738 ± 0.0023.
As for “A0A0A0MRM1|E9PL24 and related entries (UniProt Q5VU43)”, the NP40-soluble protein abundance was found to be 1.04 ± 0.053.
As for A0A087X020|Q9Y3A5 (UniProt Q9Y3A5), the NP40-soluble protein abundance was found to be 1.02 ± 0.045.
Consider A0A087X1S7|P09326 (UniProt P09326), for which the NP40-soluble protein abundance is 0.975 ± 0.017.
Regarding A0A0A6YY92|P30566 (UniProt P30566), the NP40-soluble protein abundance came out at 0.995 ± 0.044.
Consider “A0A0B4J2A4|K7EME0 and related entries (UniProt P42765)”, for which the NP40-soluble protein abundance was 0.984 ± 0.011.
A0A087WXS7|O43681 (UniProt O43681): the NP40-soluble protein abundance amounted to 0.954 ± 0.027.
Same read-out and setting: the figure for A0A0A0MQS2|F5H0Q6 (UniProt Q8N2M8) is 0.977 ± 0.061; for “A0A0A0MRY0|Q8WUA7 and related entries (UniProt Q8WUA7)” it is 0.987 ± 0.018; for A0A0A0MTR2|Q8N543 (UniProt Q8N543) it is 1 ± 0.025.
As for “A0A0G2JJD3|O95870 and related entries (UniProt O95870)”, the NP40-soluble protein abundance worked out at 1.01 ± 0.02.
On to “A0A0D9SF54|A0A0D9SGF6|Q13813 and related entries (UniProt Q13813)”, for which the NP40-soluble protein abundance was found to be 0.976 ± 0.022.
Consider “A0A0D9SGE8|Q8IWS0 and related entries (UniProt Q8IWS0)”, for which the NP40-soluble protein abundance was 1 ± 0.015.
Regarding UniProt A0FGR8-2|H7BXI1, the NP40-soluble protein abundance stood at 1.01 ± 0.016.
Still for that read-out and setting: the figure for “A0A087X0H7|Q8NEL9 and related entries (UniProt Q8NEL9)” is 1.01 ± 0.035; for “A0A087WY71|Q96CW1 and related entries (UniProt Q96CW1)” it is 1.09 ± 0.032; for “A0A0C4DGB5|P20810-10|P20810-6 (UniProt P20810)” it is 0.953 ± 0.023.
Still for that read-out and setting: then “A0JP02 and related entries (UniProt Q9HAU0)”, with 1.01 ± 0.035.

The assay is the same for the next values; noted with them: concentration: 0.5mM.
For the target “A0A0A0MTD1|E7EPX0 and related entries (UniProt Q9NUL3)”, the NP40-soluble protein abundance turned out to be 1.04 ± 0.013.
For “A0A087X0M1|H0YAA8 and related entries (UniProt Q9H204)”, the NP40-soluble protein abundance amounted to 1.05 ± 0.069.
As to A0A0U1RRB3|Q8IYT2 (UniProt Q8IYT2), the NP40-soluble protein abundance came to 0.994 ± 0.037.
Still for that read-out and setting: the figure for “A0A0U1RRC9|P57075 and related entries (UniProt P57075)” is 0.992 ± 0.019.
On the same count and under the same terms, then “A0A087WY00|F8W6H6 and related entries (UniProt Q9Y4I1)”, with 1.72 ± 0.28; and A0A0A0MTH3|Q13418 (UniProt Q13418), with 0.984 ± 0.03; and “A0A0A0MSE9|B7WPA5 and related entries (UniProt Q96CS7)”, with 0.988 ± 0.014.
Still for that read-out and setting: the figure for “A0A0A0MQX8|Q9NR56 and related entries (UniProt Q9NR56)” is 1 ± 0.06; for A0A087WYP2|Q8IZQ5 (UniProt Q8IZQ5) it is 1.02 ± 0.018.
Turning to “A0A0C4DGG9|F5GWX5 and related entries (UniProt Q14839)”, the NP40-soluble protein abundance stood at 1.01 ± 0.026.
As to “A0A0A0MRE5|Q9ULH1 and related entries (UniProt Q9ULH1)”, the NP40-soluble protein abundance is 0.988 ± 0.031.
Same read-out and setting: then “A0A087WYL7|G3V4A5 and related entries (UniProt O75586)”, with 0.976 ± 0.054; and A0A0G2JNW7|Q9Y666 (UniProt Q9Y666), with 0.9769 ± 0.0065.
Still for that read-out and setting: the figure for “A0A0A0MTN0|Q13617 and related entries (UniProt Q13617)” is 0.979 ± 0.05; for “A0A087X1K9|O75608 and related entries (UniProt O75608)” it is 0.978 ± 0.02.
Turning to A0A0C4DFY7|Q6UWW8 (UniProt Q6UWW8), the NP40-soluble protein abundance turned out to be 0.985 ± 0.021.
The same measure, in the same setting: the figure for “A0A087X0W8|Q04206 and related entries (UniProt Q04206)” is 0.99 ± 0.038.
Still for that read-out and setting: the figure for “A0A0A0MTJ9|A0A0R4J2G3|Q6PIU2 and related entries (UniProt Q6PIU2)” is 1 ± 0.039; for A0A0A0MT83|P26440 (UniProt P26440) it is 0.989 ± 0.015; for “A0A0A0MSA9|A0A0C4DG49|P15151 and related entries (UniProt P15151)” it is 1.04 ± 0.042.
Same read-out and setting: then “A0A0A0MRM1|E9PL24 and related entries (UniProt Q5VU43)”, with 0.98 ± 0.029; and A0A087X020|Q9Y3A5 (UniProt Q9Y3A5), with 0.97 ± 0.031; and A0A087X1S7|P09326 (UniProt P09326), with 0.9843 ± 0.0087.
In the case of A0A0A6YY92|P30566 (UniProt P30566), the NP40-soluble protein abundance amounted to 0.99 ± 0.055.
The same measure, in the same setting: then “A0A0B4J2A4|K7EME0 and related entries (UniProt P42765)”, with 1.01 ± 0.032; and A0A087WXS7|O43681 (UniProt O43681), with 0.947 ± 0.044.
Regarding A0A0A0MQS2|F5H0Q6 (UniProt Q8N2M8), the NP40-soluble protein abundance was determined as 1.02 ± 0.065.
On the same count and under the same terms, then “A0A0A0MRY0|Q8WUA7 and related entries (UniProt Q8WUA7)”, with 1.04 ± 0.058.
The same measure, in the same setting: the figure for A0A0A0MTR2|Q8N543 (UniProt Q8N543) is 0.991 ± 0.016.
For the target “A0A0G2JJD3|O95870 and related entries (UniProt O95870)”, the NP40-soluble protein abundance worked out at 0.97 ± 0.056.
On to “A0A0D9SF54|A0A0D9SGF6|Q13813 and related entries (UniProt Q13813)”, for which the NP40-soluble protein abundance stood at 1.03 ± 0.026.
On the same count and under the same terms, then “A0A0D9SGE8|Q8IWS0 and related entries (UniProt Q8IWS0)”, with 1.01 ± 0.023.
Same read-out and setting: then UniProt A0FGR8-2|H7BXI1, with 1 ± 0.057; and “A0A087X0H7|Q8NEL9 and related entries (UniProt Q8NEL9)”, with 1.02 ± 0.028; and “A0A087WY71|Q96CW1 and related entries (UniProt Q96CW1)”, with 1.03 ± 0.1.
Still for that read-out and setting: the figure for “A0A0C4DGB5|P20810-10|P20810-6 (UniProt P20810)” is 1.01 ± 0.061; for “A0JP02 and related entries (UniProt Q9HAU0)” it is 1.01 ± 0.042.

For the origin of these results see the supplement of paper PMC6411743.
